Assay [1] addresses PD-L1 with the TSS-AAA mutation in the cytoplasmic domain, tagged with GFP (mouse) (UniProt Q9EP73). Put plainly: affinity purification with mass spectrometry; PD-L1-GFP immunoprecipitated from lysates of SVEC4-10 cells after sodium vanadate; peptides enriched for phosphopeptides (Fe-NTA) before LC-MS/MS; n = 3 samples per group.
The target in assay [2] is WT PD-L1 (programmed death ligand 1) tagged with GFP (mouse) (UniProt Q9EP73). Described as above.
For assay [3] the target is unchanged. Put plainly: affinity purification with mass spectrometry; GFP-tagged PD-L1 precipitated from SVEC4-10 lysate overnight with GST-tagged anti-GFP nanobody on GST beads, washed 4x in TBS with 0.1% Tween-20; cells with or without sodium vanadate; in-gel trypsin digest, LC-MS/MS; N = 6 samples per cell type.

By UniProt entry, the sequences of proteins in these tests, tags left out. Where a name states a change or a piece, a line headed by the entry shows the natural chain unless it says otherwise. Chains listed by the source or under a name are the forms on record and can include a tag or linker. Residues count along the entry.
WT PD-L1 (programmed death ligand 1) tagged with GFP (Q9EP73, residues 19-290): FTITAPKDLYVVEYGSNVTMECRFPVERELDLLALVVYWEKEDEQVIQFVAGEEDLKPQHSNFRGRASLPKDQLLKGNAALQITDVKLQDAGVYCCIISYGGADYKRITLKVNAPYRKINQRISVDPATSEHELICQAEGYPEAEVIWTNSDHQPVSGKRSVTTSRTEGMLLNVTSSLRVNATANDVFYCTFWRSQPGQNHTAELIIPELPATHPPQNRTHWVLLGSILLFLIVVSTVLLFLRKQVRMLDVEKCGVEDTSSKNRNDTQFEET
PD-L1 with the TSS-AAA mutation in the cytoplasmic domain, tagged with GFP (Q9EP73, form named): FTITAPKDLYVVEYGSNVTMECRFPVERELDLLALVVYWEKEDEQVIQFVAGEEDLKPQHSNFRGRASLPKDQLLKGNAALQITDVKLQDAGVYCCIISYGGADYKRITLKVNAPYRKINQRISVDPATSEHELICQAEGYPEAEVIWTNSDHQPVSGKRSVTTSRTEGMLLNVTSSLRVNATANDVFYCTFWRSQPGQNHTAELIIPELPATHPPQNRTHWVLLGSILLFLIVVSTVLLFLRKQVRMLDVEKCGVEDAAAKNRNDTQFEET
UniProt Q80YR5: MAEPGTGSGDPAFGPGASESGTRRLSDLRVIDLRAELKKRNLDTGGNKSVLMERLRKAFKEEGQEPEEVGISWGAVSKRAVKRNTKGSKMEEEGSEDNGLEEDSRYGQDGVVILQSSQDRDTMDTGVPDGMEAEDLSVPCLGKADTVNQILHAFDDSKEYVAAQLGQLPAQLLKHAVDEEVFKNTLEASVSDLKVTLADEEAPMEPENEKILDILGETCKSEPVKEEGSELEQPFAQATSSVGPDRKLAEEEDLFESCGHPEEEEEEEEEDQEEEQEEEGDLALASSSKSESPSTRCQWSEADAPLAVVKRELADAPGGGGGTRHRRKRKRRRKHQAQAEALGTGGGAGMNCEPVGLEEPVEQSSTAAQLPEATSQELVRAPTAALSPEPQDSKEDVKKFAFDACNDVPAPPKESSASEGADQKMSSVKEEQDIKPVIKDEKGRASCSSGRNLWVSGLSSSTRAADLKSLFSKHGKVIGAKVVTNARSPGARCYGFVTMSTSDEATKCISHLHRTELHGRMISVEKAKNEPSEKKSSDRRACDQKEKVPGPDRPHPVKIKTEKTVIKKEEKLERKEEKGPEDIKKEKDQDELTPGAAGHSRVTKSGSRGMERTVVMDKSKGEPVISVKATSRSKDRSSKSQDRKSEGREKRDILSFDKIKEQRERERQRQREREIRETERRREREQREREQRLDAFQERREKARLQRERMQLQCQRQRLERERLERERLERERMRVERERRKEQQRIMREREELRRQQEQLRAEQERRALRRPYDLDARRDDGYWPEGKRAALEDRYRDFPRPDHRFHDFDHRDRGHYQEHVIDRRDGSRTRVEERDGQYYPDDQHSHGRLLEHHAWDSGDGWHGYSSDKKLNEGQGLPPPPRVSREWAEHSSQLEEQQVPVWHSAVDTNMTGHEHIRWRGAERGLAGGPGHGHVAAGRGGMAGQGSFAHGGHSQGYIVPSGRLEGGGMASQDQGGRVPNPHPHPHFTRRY
UniProt Q3UMF0: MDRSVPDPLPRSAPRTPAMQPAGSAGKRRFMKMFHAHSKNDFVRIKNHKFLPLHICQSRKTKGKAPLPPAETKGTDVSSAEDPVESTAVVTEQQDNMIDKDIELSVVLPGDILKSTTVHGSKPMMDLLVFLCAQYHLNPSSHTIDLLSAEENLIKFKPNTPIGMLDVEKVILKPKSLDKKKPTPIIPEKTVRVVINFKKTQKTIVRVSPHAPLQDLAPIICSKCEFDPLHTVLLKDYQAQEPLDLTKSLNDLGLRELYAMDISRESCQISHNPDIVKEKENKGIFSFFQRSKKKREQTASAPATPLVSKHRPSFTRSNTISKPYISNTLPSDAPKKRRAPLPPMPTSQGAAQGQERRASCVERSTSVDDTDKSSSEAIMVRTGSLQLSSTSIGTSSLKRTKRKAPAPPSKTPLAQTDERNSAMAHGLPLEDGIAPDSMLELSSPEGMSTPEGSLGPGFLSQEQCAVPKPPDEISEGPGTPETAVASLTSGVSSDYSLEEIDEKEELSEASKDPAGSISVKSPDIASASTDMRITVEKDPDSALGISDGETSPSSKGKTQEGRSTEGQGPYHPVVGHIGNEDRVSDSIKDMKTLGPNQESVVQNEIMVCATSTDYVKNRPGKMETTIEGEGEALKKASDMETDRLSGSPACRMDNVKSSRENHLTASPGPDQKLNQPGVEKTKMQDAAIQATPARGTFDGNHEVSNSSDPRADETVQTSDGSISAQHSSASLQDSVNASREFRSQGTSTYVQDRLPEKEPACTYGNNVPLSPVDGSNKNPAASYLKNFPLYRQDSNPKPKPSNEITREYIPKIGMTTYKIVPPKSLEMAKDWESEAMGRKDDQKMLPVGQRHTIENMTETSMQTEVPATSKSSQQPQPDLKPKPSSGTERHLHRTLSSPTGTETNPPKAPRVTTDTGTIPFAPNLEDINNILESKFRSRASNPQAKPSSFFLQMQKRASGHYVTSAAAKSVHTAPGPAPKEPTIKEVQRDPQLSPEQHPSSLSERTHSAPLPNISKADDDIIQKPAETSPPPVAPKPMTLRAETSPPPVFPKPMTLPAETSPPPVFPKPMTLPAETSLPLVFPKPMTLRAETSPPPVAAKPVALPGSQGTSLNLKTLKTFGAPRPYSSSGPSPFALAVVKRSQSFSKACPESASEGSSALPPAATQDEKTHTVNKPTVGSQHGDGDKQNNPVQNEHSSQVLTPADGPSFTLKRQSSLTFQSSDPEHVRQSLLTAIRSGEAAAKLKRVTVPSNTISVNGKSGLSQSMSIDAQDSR
UniProt Q8C547: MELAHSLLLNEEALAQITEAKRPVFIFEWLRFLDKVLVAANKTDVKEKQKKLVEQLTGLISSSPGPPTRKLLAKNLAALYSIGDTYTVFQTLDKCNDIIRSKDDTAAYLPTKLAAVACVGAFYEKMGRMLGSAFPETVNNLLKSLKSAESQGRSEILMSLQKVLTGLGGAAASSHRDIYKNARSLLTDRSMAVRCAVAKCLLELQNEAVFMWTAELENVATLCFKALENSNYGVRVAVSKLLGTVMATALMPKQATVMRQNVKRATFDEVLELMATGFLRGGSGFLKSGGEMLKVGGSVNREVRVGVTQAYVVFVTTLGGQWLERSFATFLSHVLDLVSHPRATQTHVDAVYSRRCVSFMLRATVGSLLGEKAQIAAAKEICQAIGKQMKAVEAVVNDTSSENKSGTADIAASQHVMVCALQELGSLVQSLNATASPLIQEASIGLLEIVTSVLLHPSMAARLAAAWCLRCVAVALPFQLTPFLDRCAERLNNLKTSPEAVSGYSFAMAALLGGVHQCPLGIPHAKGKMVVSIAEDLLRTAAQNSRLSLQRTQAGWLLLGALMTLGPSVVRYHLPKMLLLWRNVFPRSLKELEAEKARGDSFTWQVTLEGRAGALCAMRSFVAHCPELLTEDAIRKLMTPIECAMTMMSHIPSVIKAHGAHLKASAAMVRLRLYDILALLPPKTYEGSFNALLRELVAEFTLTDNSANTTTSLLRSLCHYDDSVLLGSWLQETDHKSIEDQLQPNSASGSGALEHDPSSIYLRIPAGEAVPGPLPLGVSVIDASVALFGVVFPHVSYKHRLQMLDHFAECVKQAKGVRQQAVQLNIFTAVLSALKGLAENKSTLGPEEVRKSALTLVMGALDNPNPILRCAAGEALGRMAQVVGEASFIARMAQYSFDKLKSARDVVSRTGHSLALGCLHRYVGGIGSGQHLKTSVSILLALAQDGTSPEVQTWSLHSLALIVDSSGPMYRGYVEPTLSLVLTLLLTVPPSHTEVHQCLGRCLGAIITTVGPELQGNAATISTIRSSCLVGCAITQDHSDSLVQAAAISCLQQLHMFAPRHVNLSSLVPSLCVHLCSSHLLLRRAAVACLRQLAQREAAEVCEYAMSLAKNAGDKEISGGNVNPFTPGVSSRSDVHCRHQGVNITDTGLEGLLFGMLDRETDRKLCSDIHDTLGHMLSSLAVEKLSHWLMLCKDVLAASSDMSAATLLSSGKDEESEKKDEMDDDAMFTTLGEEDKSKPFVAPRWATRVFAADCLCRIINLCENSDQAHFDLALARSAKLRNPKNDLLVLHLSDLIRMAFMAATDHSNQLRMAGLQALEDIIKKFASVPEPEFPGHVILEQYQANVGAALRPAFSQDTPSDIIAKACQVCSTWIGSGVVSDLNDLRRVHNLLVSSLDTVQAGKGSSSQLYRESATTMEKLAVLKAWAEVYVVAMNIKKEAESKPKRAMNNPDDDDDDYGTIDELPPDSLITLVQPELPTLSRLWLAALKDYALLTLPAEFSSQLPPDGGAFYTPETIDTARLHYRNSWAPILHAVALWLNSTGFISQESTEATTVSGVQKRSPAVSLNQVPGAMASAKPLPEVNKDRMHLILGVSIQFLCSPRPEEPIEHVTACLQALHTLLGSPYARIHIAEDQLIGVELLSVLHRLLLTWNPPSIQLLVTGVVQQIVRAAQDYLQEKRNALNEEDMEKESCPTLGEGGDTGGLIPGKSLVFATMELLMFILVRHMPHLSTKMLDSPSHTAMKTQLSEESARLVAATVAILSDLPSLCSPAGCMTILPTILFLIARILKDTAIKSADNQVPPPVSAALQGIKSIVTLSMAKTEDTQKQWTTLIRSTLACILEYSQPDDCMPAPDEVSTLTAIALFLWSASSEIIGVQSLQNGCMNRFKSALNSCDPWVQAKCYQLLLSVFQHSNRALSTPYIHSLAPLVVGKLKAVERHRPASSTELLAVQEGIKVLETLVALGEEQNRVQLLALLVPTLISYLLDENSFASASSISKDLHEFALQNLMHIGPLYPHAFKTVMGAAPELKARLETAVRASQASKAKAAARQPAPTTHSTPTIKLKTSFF
UniProt Q6P542: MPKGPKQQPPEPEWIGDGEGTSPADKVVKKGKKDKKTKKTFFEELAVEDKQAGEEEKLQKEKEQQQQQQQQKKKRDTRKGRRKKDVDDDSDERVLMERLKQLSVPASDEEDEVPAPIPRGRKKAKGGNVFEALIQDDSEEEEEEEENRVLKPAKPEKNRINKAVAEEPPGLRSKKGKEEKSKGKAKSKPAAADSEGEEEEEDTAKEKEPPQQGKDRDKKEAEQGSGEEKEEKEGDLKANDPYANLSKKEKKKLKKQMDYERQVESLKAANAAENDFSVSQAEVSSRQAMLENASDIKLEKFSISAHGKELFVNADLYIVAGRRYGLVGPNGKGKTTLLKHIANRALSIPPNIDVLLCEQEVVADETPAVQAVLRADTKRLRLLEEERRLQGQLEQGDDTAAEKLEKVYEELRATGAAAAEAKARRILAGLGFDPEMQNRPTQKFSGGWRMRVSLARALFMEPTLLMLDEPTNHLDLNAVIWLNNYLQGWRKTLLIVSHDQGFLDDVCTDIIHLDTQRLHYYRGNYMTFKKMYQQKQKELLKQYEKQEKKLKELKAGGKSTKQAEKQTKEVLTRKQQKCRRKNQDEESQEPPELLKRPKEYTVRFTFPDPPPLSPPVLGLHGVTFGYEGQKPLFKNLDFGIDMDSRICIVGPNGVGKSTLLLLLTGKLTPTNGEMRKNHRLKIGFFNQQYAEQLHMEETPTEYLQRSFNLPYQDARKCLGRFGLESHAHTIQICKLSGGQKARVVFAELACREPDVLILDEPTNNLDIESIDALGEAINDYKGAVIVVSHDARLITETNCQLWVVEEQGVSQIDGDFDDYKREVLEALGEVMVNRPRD
UniProt Q922U2: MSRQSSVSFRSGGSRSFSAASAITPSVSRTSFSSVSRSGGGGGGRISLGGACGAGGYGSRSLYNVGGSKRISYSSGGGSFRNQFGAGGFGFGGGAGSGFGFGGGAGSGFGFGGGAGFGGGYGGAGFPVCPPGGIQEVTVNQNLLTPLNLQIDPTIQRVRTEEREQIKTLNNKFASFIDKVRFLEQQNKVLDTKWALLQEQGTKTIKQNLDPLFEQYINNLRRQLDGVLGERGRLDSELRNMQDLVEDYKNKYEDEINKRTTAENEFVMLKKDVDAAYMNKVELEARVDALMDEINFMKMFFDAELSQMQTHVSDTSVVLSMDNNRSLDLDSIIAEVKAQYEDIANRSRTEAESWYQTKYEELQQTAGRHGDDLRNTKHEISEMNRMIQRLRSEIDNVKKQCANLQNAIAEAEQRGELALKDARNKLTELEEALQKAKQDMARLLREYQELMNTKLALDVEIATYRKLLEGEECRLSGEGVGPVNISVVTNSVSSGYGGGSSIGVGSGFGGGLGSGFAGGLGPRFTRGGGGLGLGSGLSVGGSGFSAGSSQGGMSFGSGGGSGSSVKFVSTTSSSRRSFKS

These are yes or no findings as the source states them, for the method shown. Binding seen in cells or lysates may run through a third protein. A yes stands for co-enrichment or nearness to the bait. Other partners may have been found. For some assays here: No binding means not detected with the bait.

Take “Rho Guanin nucleotide exchange factor 40, phosphorylated (from UniProt Q3UPH7 1-1517)”: the binding entry in assay [1] was “binds”.

As for “Scaffold Attachment Factor B2, phosphorylated (from UniProt Q80YR5 1-991)”, the binding result in assay [1] is listed as “binds”.

On to “Cordon-bleu Protein Like-1, phosphorylated (from UniProt Q3UMF0 1-1273)”, for which the binding entry in assay [1] is “binds”.

Turning to “Heat repeat containing 5b, phosphorylated (from UniProt Q8C547 1-2070)”, the binding entry is reported as “no binding” in assay [1] and “binds” in assay [2].

For the molecule “STAT3 phosphorylated on Ser727 (from UniProt P42227 1-770)”, the binding entry in assay [2] is “binds”.

With “ATP Binding Cassette Subfamily F Member 1, phosphorylated (from UniProt Q6P542 1-837)”, the binding entry in assay [1] is recorded as “binds”.

“Keratin 5, phosphorylated (from UniProt Q922U2 1-580)”: the binding entry was “no binding” in assay [1] and “binds” in assay [2].

B1: N-Alpha-Acetyltransferase 15, NatA Auxiliary Subunit, phosphorylated (protein, UniProt Q80UM3 1-865)
chain: MPAVSLPPKENALFKRILRCYEHKQYRNGLKFCKQILSNPKFAEHGETLAMKGLTLNCLGKKEEAYELVRRGLRNDLKSHVCWHVYGLLQRSDKKYDEAIKCYRNALKWDKDNLQILRDLSLLQIQMRDLEGYRETRYQLLQLRPAQRASWIGYAIAYHLLEDYEMAAKILEEFRKTQQTSPDKVDYEYSELLLYQNQVLREAGLYREALEHLCTYEKQICDKLAVEETKGELLLQLCRLEDAADVYRGLQERNPGNWAYYKGLEKALKPANMLERLKIYEEAWTKYPRGLVPRRLPLNFLSGEKFKECLDRFLRMNFSKGCPPVFNTLRSLYRDKEKVAIVEELVVGYETSLKSCRLFNPNDDGKEEPPTTLLWVQYYLAQHYDKIGQPSIALEYINTAIESTPTLIELFLVKAKIYKHAGNIKEAARWMDEAQALDTADRFINSKCAKYVLKANLIKEAEEMCSKFTREGTSAVENLNEMQCMWFQTECAQAYKAMNKFGEALKKCHEIERHFIEITDDQFDFHTYCMRKITLRSYVDLLKLEDVLRQHPFYFKAARIAIEIYLKLHDNPLTDENKEHEADTANMSDKELKKLRNKQRRAQKKAQIEEEKKNAEKEKQQRNQKKKKDDDDEEIGGPKEELIPEKLAKVETPLEEAIKFLTPLKNLVKNKIETHLFAFEIYFRKEKFLLMLQSVKRAFAIDSGHPWLHECMIRLFHSVCESKDLPETVRTVLKQEMNRLFGATNPKNFNETFLKRNSDSLPHRLSAAKMVYYLDSSSQKRAIELATTLDGSLTNRNLQTCMEVLEALCDGSLGDCKEAAEAYRASCHKLFPYALAFMPPGYEEDMKITVNGDSSAETEELANEI
modifications: phosphorylated (site not given)
As for B1, in assay [1], the binding entry is “binds”.

B2: Solute Carrier Family 25 Member 3 (protein, UniProt Q8VEM8 46-357)
chain: AVEEYSCEFGSMKYYALCGFGGVLSCGLTHTAVVPLDLVKCRMQVDPQKYKGIFNGFSITLKEDGVRGLAKGWAPTLIGYSMQGLCKFGFYEVFKALYSNILGEENTYLWRTSLYLASSASAEFFADIALAPMEAAKVRIQTQPGYANTLREAVPKMYKEEGLNAFYKGVAPLWMRQIPYTMMKFACFERTVEALYKFVVPKPRSECTKAEQLVVTFVAGYIAGVFCAIVSHPADSVVSVLNKEKGSTASQVLQRLGFRGVWKGLFARIIMIGTLTALQWFIYDSVKVYFRLPRPPPPEMPESLKKKLGLTE
On to B2, for which, in assay [3], the binding result is “binds”.

B3: Rho GTPase Activating Protein 35, phosphorylated (protein, UniProt Q91YM2 1-1499)
chain: MMMARKQDVRIPTYNISVVGLSGTEKEKGQCGIGKSCLCNRFVRPSADEFHLDHTSVLSTSDFGGRVVNNDHFLYWGEVSRSLEDCVECKMHIVEQTEFIDDQTFQPHRSTALQPYIKRAAATKLASAEKLMYFCTDQLGLEQDFEQKQMPDGKLLVDGFLLGIDVSRGMNRNFDDQLKFVSNLYNQLAKTKKPIVVVLTKCDEGVERYIRDAHTFALSKKNLQVVETSARSNVNVDLAFSTLVQLIDKSRGKTKIIPYFEALKQQSQQIATAKDKYEWLVSRIVKNHNENWPSVSRKMQASPEYQDYVYLEGTQKAKKLFLQHIHRLKHEHIERRRKLYLAALPLAFEALIPNLDEVDHLSCIKAKKLLETKPEFLKWFVVLEETPWDATSHIDNMENERIPFDLMDTVPAEQLYETHLEKLRNERKRAEMRRAFKENLETSPFITPGKPWEEARSFIMNEDFYQWLEESVYMDIYGKHQKQIIDRAKEEFQELLLEYSELFYELELDAKPSKEKMGVIQDVLGEEQRFKALQKLQAERDALILKHIHFVYHPTKETCPSCPACVDAKIEHLISSRFIRPSDRNQKNSLSDLNIDRINLVILGKDGLARELANEIRALCTNDDKYVIDGKMYELSLRPIEGNVRLPVNSFQTPTFQPHGCLCLYNSKESLSYVVESIEKSRESTLGRRDNHLVHLPLTLILVNKRGDTSGETLHSLIQQGQQIASKLQCVFLDPASAGIGYGRNINEKQISQVLKGLLDSKRNLNLVSSTASIKDLADVDLRIVMCLMCGDPFSADDVLSPVLQSQTCKSSHCGSSNSVLLELPIGLHKKRIELSVLSYHSSFSIRKSRLVHGYIVFYSAKRKASLAMLRAFLCEVQDIIPIQLVALTDGAIDVLDNDLSREQLTEGEEIAQEIDGRFTSIPCSQPQHKLELFHPFFKDVVEKKNIIEATHMYDNVAEACSTTEEVFNSPRAGSPLCNSNLQDSEEDVEPPSYHLFREDATLPSLSKDHSKFSMELEGNDGLSFIMSNFESKLNNKVPPPVKPKPPVHFDITKDLSYLDQGHREGQRKSMSSSPWMPQDGFDPSDYAEPMDAVVKPRNEEENIYSVPHDSTQGKIITIRNINKAQSNGSGNGSDSEMDTSSLERGRKVSAVSKPVLYRTRCTRLGRFASYRTSFSVGSDDELGPIRKKEEDQASQGYKGDNAVIPYETDEDPRRRNILRSLRRNTKKPKPKPRPSITKATWESNYFGVPLTTVVTPEKPIPIFIERCIEYIEATGLSTEGIYRVSGNKSEMESLQRQFDQDHNLDLAEKDFTVNTVAGAMKSFFSELPDPLVPYSMQIDLVEAHKINDREQKLHALKEVLKKFPKENHEVFKYVISHLNKVSHNNKVNLMTSENLSICFWPTLMRPDFSSMDALTATRSYQTIIELFIQQCPFFFYNRPISEPPGAAPGSPSAMAPTVPFLTSTPATSQPSPPQSPPPTPQSPMQPLLSSQLQAEHTL
modifications: phosphorylated (site not given)
B3: the binding entry in assay [2] was “binds”.

B4: Pleckstrin Homology Like Domain Family B Member 2, phosphorylated (protein, UniProt Q8K1N2 1-1249)
chain: MAEDSHMQKQLEFQNGSLEEGFVVRSLENEPQNMMESLSPRKYSSSLKFKANGDYSGSYLTLSQPVSAKRSPSPMGTSVRSSPSLAKIQGSKQFCDGIDKNISMKPPISFLSSAASLGGYPLGKADLDHYTGRDSERSTRLSEKPPYSRYSSRNKSHDSVYFLGGLEGRKTSGSLLTMWNGNSLSCTGSSPISRSGAASMPSSPKQVRKMNLQDHSTLQPRLSRHKEPASENVSVRTRKYSGSSLSNMGAYSRSLPRLYKATDNQMSPLSLPPRSSLGNSRRGQLGEKDLPHSLVDSDNYLNFSSLSSGASPYKTCLSEGNPYVSSALSVPASPRVARKMLLASTSSDDFDRASYSGTSPSHSFISGEPDRVLVARRNFSCGSMELDDSDLESLRQSSETPQPVLRERKSSISSISGRDDLMDYHRRQREERLREQEMERLERQRLETILSLCAEYTKPEGRRLSAGTTVADVQKINKELEKLQLSDEESVFEDALVCPDARYRCHRKGSLQDVDVAGFGNLGHSASFLAPRGSRSDELLGDLTRTPPSSSAAFLKATNESSYLSILPKTPEDIGEEQRTQELAAMEDARMVILNNLEELEQKIKDINDQMDESSRELDMECALLDGEQKSETAELMKEKEILDHLNRKITELEKNIVGEKTKEKVKLDAEREKLERLQELYSEQKTQLDNCPESMREQLQQQLKRDADLLDVESKHFEDLEFQQLEHESRLDEEKENLTQQLLREVAEYQRNIVARKEKISALKKQASHIVQQAQREQDHFVKEKNNLIMMLQREKENLCNLEKKYSSLTGGKGFPINPNTLKEGYISVNEINESCGNSTNLSPSTQFPADADAAVTEPALAVPVSQPQSSEHFRSLEERKKQHKEGLYLSDTLPRKKTTPSLSPHFSSATMGRSTTPKAHLPLGQSNSCGSVLPHSLATMTKDSESRRMLRGYNHQQMSEGQRQKPEFYSRTASESNVYLNSFHYPDRSYKDQAYDTLSLDSSDSMETSISACSPDNISSASTSNIARIEEMERLLKQAHAEKTRLLESREREMEAKKRALEEEKRRREILEKRLQEETSQRQKLIEKEVKIREKQRAQARPLTRYLPVRKEDFDLRSHVETAGHNIDTCFHVSITEKTCRGYLIKMGGKIKTWKKRWFVFDRNKRTFSYYADKHEAKLKGVIYFQAIEEVYYDHLKNANKSPNPLLTFSVKTHDRIYYMVAPSPEAMRIWMDVIVTGAEGYTHFLL
modifications: phosphorylated (site not given)
As for B4, the binding entry in assay [1] is recorded as “binds”.

B5: Drebin 1, phosphorylated (protein, UniProt Q9QXS6 1-706)
chain: MAGVSFSGHRLELLAAYEEVIREESAADWALYTYEDGSDDLKLAASGEGGLQELSGHFENQKVMYGFCSVKDSQAALPKYVLINWVGEDVPDARKCACASHVAKVAEFFQGVDVIVNASSVEDIDAGAIGQRLSNGLARLSSPVLHRLRLREDENAEPVGTTYQKTDAAVEMKRINREQFWEQAKKEEELRKEEERKKALDARLRFEQERMEQERQEQEERERRYREREQQIEEHRRKQQSLEAEEAKRRLKEQSIFGDQRDEEEESQMKKSESEVEEAAAIIAQRPDNPREFFRQQERVASASGGSCDAPAPAPFNHRPGRPYCPFIKASDSGPSSSSSSSSSPPRTPFPYITCHRTPNLSSSLPCSHLDSHRRMAPTPIPTRSPSDSSTASTPIAEQIERALDEVTSSQPPPPPPPPPPTQEAQETTPSLDEELSKEAKVTAAPEVWAGCAAEPPQAQEPPLLQSSPLEDSMCTESPEQAALAAPAEPAASVTSVADVHAADTIETTTATTDTTIANNVTPAAASLIDLWPGNGEEASTLQAEPRVPTPPSGAEASLAEVPLLNEAAQEPLPPVGEGCANLLNFDELPEPPATFCDPEEEVGETLAASQVLTMPSALEEVDQVLEQELEPEPHLLTNGETTQKEGTQASEGYFSQSQEEEFAQSEEPCAKVPPPVFYNKPPEIDITCWDADPVPEEEEGFEGGD
modifications: phosphorylated (site not given)
With B5, the binding entry in assay [1] is given as “binds”.

These data come from paper PMC9761386.
